# Experimental data reported in the supplement of paper PMC11732987, “Enantioselective OTUD7B fragment discovery through chemoproteomics screening and high-throughput optimisation” (Communications Chemistry, 2025).
# Chains of the proteins cited; added tags and fusions are not shown. Lines headed by an entry give the natural chain unless they say otherwise; changes in a name come on top. Residues count along the entry.
# UniProt Q6NUK1: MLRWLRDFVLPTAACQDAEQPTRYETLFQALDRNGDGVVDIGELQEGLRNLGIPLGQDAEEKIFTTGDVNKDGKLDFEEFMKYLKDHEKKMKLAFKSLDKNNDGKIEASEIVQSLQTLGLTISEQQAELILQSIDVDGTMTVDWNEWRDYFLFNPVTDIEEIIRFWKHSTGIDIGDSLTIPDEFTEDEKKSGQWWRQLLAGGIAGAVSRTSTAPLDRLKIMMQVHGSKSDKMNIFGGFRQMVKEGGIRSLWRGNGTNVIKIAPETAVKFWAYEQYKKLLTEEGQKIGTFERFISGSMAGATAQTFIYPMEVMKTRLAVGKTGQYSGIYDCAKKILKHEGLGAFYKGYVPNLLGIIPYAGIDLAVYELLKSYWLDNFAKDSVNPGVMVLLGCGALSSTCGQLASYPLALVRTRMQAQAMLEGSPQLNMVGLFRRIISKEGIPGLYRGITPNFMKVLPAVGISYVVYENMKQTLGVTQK
# UniProt A6NHR9: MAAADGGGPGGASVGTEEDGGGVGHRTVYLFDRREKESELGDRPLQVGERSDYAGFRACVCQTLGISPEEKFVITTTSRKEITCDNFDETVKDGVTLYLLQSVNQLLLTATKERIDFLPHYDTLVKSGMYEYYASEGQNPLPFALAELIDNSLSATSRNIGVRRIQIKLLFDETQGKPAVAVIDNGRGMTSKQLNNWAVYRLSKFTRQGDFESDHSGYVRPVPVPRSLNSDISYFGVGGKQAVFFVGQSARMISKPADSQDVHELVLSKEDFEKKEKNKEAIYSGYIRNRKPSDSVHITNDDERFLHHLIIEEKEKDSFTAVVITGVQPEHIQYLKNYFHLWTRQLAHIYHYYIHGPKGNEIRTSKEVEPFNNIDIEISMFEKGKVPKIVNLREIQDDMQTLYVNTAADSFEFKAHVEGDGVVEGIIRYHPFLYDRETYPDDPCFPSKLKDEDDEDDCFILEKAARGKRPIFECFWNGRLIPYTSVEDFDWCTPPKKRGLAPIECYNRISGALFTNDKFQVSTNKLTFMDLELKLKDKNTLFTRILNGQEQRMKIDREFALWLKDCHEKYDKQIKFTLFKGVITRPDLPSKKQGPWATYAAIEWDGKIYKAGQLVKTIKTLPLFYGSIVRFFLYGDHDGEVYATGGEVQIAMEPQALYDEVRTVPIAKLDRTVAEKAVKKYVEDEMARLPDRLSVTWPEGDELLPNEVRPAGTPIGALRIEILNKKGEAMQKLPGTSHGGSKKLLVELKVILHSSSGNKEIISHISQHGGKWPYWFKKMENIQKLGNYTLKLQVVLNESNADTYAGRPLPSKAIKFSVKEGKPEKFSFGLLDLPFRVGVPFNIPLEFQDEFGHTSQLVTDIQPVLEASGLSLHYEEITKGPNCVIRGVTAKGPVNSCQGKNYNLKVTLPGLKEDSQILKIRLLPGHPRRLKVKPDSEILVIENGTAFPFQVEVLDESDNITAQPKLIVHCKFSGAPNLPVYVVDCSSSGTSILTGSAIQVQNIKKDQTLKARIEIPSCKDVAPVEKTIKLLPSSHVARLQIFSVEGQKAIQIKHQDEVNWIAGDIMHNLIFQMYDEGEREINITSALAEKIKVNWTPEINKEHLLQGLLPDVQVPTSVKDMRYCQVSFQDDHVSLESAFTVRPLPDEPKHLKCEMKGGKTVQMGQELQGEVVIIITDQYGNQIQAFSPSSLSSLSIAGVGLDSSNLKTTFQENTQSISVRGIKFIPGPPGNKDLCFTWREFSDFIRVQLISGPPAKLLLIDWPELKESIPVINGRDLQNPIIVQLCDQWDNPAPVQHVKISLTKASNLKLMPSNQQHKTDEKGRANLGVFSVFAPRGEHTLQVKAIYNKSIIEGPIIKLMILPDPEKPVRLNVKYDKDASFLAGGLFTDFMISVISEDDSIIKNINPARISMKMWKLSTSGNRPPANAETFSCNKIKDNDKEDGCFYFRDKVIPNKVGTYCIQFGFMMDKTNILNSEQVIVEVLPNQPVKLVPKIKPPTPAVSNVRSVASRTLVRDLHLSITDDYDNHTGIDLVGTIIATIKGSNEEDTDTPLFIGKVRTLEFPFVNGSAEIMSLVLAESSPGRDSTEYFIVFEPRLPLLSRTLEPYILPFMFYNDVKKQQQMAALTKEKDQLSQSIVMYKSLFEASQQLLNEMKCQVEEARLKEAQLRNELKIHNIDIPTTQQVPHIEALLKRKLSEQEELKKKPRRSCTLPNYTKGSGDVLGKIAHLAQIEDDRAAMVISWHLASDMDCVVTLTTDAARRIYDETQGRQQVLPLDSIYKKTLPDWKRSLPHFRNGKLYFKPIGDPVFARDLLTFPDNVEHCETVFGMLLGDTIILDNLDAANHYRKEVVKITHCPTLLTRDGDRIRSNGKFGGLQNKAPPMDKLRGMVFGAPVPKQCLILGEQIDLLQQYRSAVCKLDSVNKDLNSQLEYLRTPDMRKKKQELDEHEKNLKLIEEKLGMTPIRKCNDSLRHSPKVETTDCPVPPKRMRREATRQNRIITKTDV
# UniProt Q9NRA2: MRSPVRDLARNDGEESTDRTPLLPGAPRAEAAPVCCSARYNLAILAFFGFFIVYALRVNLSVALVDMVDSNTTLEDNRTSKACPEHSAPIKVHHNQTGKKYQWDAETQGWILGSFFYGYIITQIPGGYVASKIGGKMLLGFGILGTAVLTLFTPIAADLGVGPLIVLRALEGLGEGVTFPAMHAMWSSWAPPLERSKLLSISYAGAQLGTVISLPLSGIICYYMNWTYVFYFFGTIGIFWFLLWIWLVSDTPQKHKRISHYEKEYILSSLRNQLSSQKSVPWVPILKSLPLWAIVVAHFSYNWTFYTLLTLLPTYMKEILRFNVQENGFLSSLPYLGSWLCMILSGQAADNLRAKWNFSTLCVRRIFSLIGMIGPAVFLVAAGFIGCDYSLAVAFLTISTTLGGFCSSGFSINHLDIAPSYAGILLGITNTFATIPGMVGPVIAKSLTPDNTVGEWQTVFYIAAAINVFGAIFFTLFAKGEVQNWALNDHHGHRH
# UniProt Q8TEV9, 511-534: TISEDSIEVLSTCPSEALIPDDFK
# UniProt Q9UBX3: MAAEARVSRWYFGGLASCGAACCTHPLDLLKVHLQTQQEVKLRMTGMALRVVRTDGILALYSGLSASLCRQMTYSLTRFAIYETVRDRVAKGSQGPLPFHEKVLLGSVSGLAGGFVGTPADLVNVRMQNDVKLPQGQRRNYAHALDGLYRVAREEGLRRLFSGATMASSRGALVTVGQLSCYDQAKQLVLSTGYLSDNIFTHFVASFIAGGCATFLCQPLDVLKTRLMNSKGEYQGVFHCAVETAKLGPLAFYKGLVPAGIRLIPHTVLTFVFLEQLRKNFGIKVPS
# UniProt Q96T83: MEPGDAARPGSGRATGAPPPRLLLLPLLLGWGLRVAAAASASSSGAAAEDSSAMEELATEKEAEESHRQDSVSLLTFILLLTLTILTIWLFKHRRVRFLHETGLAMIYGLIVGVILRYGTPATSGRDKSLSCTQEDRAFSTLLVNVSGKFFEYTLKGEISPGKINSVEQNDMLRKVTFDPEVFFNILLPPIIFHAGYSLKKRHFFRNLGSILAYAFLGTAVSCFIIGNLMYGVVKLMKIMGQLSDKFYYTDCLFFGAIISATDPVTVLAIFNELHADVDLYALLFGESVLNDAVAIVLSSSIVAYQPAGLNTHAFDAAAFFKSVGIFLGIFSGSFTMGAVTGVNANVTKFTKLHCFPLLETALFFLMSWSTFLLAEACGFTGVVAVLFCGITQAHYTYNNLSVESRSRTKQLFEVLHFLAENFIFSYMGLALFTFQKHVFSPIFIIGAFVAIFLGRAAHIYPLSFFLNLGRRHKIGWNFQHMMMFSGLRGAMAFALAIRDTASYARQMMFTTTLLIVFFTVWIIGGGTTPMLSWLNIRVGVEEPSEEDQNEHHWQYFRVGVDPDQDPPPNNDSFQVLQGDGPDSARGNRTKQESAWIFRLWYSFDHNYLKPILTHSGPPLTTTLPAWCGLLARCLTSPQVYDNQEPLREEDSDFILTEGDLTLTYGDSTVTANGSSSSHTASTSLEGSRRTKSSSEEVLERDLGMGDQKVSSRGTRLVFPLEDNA
# UniProt Q9H2H9: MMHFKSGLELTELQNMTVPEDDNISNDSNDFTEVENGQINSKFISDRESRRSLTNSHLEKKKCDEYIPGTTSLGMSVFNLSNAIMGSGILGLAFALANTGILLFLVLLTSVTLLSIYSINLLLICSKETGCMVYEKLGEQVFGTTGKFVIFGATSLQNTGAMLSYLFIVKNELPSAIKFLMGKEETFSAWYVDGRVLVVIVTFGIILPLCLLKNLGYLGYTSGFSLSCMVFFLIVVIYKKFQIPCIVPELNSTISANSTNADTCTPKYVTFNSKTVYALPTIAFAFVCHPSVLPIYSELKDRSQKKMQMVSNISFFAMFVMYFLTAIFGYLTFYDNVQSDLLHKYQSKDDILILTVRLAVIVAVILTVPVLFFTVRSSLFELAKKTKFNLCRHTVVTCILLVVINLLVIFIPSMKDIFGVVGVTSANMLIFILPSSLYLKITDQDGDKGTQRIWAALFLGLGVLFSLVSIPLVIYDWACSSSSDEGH
# UniProt Q8NDV3: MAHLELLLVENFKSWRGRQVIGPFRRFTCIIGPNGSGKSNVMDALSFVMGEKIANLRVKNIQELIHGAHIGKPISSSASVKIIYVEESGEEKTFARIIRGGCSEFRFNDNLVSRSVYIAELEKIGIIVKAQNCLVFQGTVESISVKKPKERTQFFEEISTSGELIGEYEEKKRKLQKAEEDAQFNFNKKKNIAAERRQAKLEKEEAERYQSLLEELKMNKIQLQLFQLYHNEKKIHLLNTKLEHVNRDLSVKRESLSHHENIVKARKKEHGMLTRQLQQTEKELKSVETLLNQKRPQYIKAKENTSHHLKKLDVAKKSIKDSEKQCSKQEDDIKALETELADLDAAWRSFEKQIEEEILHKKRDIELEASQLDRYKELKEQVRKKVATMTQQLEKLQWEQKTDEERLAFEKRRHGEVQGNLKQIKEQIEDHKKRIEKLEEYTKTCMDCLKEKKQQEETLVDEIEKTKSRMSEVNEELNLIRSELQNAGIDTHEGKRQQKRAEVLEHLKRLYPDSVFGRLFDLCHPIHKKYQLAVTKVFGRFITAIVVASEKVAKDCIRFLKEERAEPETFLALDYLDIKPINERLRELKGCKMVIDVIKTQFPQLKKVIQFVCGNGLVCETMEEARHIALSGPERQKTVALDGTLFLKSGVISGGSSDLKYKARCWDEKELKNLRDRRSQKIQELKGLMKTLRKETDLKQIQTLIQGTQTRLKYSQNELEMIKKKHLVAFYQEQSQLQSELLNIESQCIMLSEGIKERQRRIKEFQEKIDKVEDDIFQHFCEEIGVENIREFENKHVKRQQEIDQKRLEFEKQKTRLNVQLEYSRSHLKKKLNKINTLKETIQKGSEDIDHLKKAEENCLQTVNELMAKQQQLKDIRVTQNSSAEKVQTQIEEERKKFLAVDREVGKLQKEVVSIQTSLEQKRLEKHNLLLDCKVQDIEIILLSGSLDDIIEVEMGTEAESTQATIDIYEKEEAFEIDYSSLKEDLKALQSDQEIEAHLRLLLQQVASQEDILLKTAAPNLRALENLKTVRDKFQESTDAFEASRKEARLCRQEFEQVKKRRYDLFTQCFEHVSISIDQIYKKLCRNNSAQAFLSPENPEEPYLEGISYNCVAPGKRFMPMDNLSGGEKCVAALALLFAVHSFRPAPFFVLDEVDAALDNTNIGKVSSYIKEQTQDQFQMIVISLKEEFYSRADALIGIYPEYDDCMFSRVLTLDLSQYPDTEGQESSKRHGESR
# UniProt Q8IYR2: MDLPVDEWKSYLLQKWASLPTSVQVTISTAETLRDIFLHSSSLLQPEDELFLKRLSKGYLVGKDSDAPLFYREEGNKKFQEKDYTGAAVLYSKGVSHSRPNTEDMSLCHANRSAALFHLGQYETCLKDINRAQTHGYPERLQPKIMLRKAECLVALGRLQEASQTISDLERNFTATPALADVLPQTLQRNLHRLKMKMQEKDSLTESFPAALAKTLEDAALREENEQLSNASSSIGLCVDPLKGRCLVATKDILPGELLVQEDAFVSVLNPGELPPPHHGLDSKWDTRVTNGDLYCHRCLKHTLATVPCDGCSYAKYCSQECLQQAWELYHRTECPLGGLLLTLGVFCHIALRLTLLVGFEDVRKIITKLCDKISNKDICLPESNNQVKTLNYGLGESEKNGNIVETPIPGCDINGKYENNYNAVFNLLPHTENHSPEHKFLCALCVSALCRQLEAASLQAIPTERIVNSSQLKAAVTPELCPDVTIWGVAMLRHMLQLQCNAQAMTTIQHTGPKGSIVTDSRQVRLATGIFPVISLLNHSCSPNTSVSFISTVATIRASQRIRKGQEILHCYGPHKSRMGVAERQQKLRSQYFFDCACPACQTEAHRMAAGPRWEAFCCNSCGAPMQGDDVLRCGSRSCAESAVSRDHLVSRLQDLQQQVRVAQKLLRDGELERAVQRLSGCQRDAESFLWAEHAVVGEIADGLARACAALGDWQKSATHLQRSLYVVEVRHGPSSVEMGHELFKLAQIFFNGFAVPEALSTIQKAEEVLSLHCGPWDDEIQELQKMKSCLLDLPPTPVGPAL
# This is one part of the list. The data scatter; read single values as rough.
# Compound: ClCC(=O)N[C@@H]1CCCc2ccccc12
# Test: log2 mean competition ratio of IA-DTB cysteine labelling (DMSO/compound) (log2 ratio); higher = stronger cysteine engagement by compound
# Details: 50 µM; treatment time: 4 h; cell line lysate: HEK293T
# Method: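 IA-DTB competitive cysteine chemoproteomics in HEK293T RIPA lysate. Lysates were treated with compound 29 or 30 at 50 or 200 µM for 4 h, then IA-DTB (500 µM, 1 h), trypsin-digested, NeutrAvidin-enriched and analysed by diaPASEF. Competition ratio = intensity DMSO / intensity compound (n=4 treated, n=64 DMSO); binding: mean log2 CR ≥ 1 and p ≤ 0.05 plus QC filters. Target is the cysteine site.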
row,Target,log2 mean competition ratio
1,SLC25A24 C330 (UniProt Q6NUK1),0.422
2,SMCHD1 C1982 (UniProt A6NHR9),-0.0896
3,SLC17A5 C83 (UniProt Q9NRA2),0.117
4,SON C92 (UniProt P18583),0.27
5,SPAG5 C177 (UniProt Q96R06),0.0521
6,SOS2 C1255 (UniProt Q07890),-0.21
7,SLK C552,-0.473
8,SLC25A6 C160 (UniProt P12236),-0.0175
9,SMCR8 C523 (UniProt Q8TEV9),-0.374
10,SLC25A19 C268 (UniProt Q9HC21),-0.0197
11,SNTB2 C391 (UniProt Q13425),0.0524
12,SLC25A10 C240 (UniProt Q9UBX3),0.162
13,SNRNP48 C26 (UniProt Q6IEG0),-0.198
14,SLC9A7 C132 (UniProt Q96T83),-0.146
15,SLC38A1 C131 (UniProt Q9H2H9),0.21
16,SMG1 C3138 (UniProt Q96Q15),-0.0928
17,SMC1B C102 (UniProt Q8NDV3),-0.282
18,SMCHD1 C1433 (UniProt A6NHR9),0.000738
19,SMPD4 C164 (UniProt Q9NXE4),-0.233
20,SMYD4 C296 (UniProt Q8IYR2),-0.0681

# Same assay, conditions: 200 µM; treatment time: 4 h; cell line lysate: HEK293T
row,Target,log2 mean competition ratio
1,SLC25A24 C330 (UniProt Q6NUK1),0.207
2,SMCHD1 C1982 (UniProt A6NHR9),0.012
3,SLC17A5 C83 (UniProt Q9NRA2),-0.445
4,SON C92 (UniProt P18583),-0.111
5,SPAG5 C177 (UniProt Q96R06),-0.0929
6,SOS2 C1255 (UniProt Q07890),-0.108
7,SLK C552,0.0184
8,SLC25A6 C160 (UniProt P12236),-0.16
9,SMCR8 C523 (UniProt Q8TEV9),-0.225
10,SLC25A19 C268 (UniProt Q9HC21),0.126
11,SNTB2 C391 (UniProt Q13425),0.312
12,SLC25A10 C240 (UniProt Q9UBX3),0.117
13,SNRNP48 C26 (UniProt Q6IEG0),0.218
14,SLC9A7 C132 (UniProt Q96T83),-0.0396
15,SLC38A1 C131 (UniProt Q9H2H9),-0.0835
16,SMG1 C3138 (UniProt Q96Q15),0.0982
17,SMC1B C102 (UniProt Q8NDV3),0.249
18,SMCHD1 C1433 (UniProt A6NHR9),0.0726
19,SMPD4 C164 (UniProt Q9NXE4),0.0311
20,SMYD4 C296 (UniProt Q8IYR2),0.336
